From PMC6407677 come the findings set out here.

Results are given in words; binding and its absence hold for the method and conditions named. In cells and extracts the contact can be indirect. Tags and fused reporters may be left off the sequences shown.

The target in the test is T1, GST-POPX2 (human) (UniProt P49593).
T1 sequence: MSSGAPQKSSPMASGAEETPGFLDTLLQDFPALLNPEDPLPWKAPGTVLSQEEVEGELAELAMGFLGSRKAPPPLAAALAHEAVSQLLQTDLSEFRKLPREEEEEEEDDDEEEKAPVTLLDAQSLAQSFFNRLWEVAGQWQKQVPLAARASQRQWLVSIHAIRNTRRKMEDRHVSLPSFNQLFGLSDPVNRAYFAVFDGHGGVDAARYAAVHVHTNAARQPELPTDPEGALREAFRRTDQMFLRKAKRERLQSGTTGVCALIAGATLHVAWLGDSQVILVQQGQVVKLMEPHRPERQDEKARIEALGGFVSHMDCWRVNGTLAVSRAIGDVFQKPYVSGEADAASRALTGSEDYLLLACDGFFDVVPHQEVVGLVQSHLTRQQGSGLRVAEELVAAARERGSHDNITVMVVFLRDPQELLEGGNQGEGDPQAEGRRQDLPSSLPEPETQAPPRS
In words: co-IP; lysates of HEK293 cells co-expressing GST-POPX2 and the Flag- or Myc-tagged partner; 1 mg lysate on glutathione sepharose beads overnight at 4°C; 25 mM Tris pH 7.5, 150 mM NaCl, 0.5% Triton-X; Western blot with anti-Flag or anti-Myc.

In the case of Myc-MOB1 (human), the binding entry was “no binding”.
